Data as given in PubChem BioAssay AID602196 (INSERM, 2012).

Screen: 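Genes whose knock-down alters cisplatin killing of lung cancer cells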
Cells: human A549 lung cancer cells
Reagents: siRNA pair against human genes
Time to read-out: 48 h transfection before cisplatin; time from cisplatin to read-out not stated
Challenge: cisplatin at a dose killing half of control-siRNA cells; exact dose and duration not given
Measured: 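Shift in cisplatin death relative to control siRNA, from -50 (all cells die) to +50 (no cells die); siRNAs harmful on their own scored 0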
Scale: two-siRNA summed score (-2 to +2): higher = both siRNAs protect from cisplatin killing; -2 means both sensitise; mean protection from cisplatin (shift in death): higher = protection from cisplatin killing
Hit rule: 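Each siRNA scores 0 if harmful alone by LDH or WST-1, otherwise +1 if it reduces and -1 if it increases cisplatin killing; a gene is active when both siRNAs agree (sum +2 or -2)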
Calls: active = both siRNAs shift cisplatin killing the same way; inactive = no consistent shift, or siRNA harmful alone
Shown is one part, drawn at random, of about 23,000 deposited reagents. Over the whole deposit, 455 (2%) were called active. 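Active includes both protection and sensitisation; some change values fall well beyond the stated -50 to +50 range.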 A number with no mark means an inactive call. Not all columns of the deposit are shown. The record does not give: the amount of reagent.

target	PubChem SID	two-siRNA summed score (-2 to +2)	mean protection from cisplatin (shift in death) (%)
LPCAT4 (lysophosphatidylcholine acyltransferase 4)	SID131518621	0	22.7
SORCS2 (sortilin related VPS10 domain containing receptor 2)	SID131501443	-1	-9.7
MEGF9 (multiple EGF like domains 9)	SID131522428	1	18.5
OR6K2 (olfactory receptor family 6 subfamily K member 2)	SID131513907	0	7.2
OPN1SW (opsin 1, short wave sensitive)	SID131502170	-1	-4.8
PDE5A (phosphodiesterase 5A)	SID131510474	0	3.3
MRPL17 (mitochondrial ribosomal protein L17)	SID131517159	0	12.5
ARHGAP36 (Rho GTPase activating protein 36)	SID131504645	0	-4.9
SLC6A10P	SID131522677	1	21.6
LOC440687	SID131516584	0	11.1
PSMC3 (proteasome 26S subunit, ATPase 3)	SID131522081	1	16.2
OSBPL2 (oxysterol binding protein like 2)	SID131510347	0	3.2
OSBPL2 (oxysterol binding protein like 2)	SID131513461	0	6.6
PPFIBP1 (PPFIB scaffold protein 1)	SID131517303	0	13
EBNA1BP2 (EBNA1 binding protein 2)	SID131522395	1	18.2
LOC440398	SID131521146	1	12.4
URGCP (upregulator of cell proliferation)	SID131505730	0	-2.7
SOX15 (SRY-box transcription factor 15)	SID131501582	-1	-8.8
ZNF664 (zinc finger protein 664)	SID131523080	2 (active)	19.1
SRRT (serrate, RNA effector molecule)	SID131506832	0	-0.9
TENT4B (terminal nucleotidyltransferase 4B)	SID131513447	0	6.6
LOC441813	SID131515557	0	9.3
SLC26A6	SID131512990	0	6.1
LOC401169	SID131511573	0	4.5
MRGPRX6P (MAS related GPR family member X6, pseudogene)	SID131515044	0	8.6
GIT2 (GIT ArfGAP 2)	SID131508146	0	0.7
KRTAP9-2 (keratin associated protein 9-2)	SID131515046	0	8.6
LOC389953	SID131519734	1	7.2
ELL3 (elongation factor for RNA polymerase II 3)	SID131516253	0	10.5
GPR6 (G protein-coupled receptor 6)	SID131506330	0	-1.7
BCL7B (BAF chromatin remodeling complex subunit BCL7B)	SID131513745	0	7
SFSWAP (splicing factor SWAP)	SID131512589	0	5.6
WDR46 (WD repeat domain 46)	SID131514206	0	7.5
SREK1 (splicing regulatory glutamic acid and lysine rich protein 1)	SID131506175	0	-1.9
LACC1 (laccase domain multifunctional purine nucleosidase 1)	SID131516228	0	10.5
GP2 (glycoprotein 2)	SID131501106	-1	-12.3
BATF (basic leucine zipper ATF-like transcription factor)	SID131516679	0	11.4
LHFPL5 (LHFPL tetraspan subfamily member 5)	SID131523031	2 (active)	17.4
SLC25A37	SID131508411	0	1
LOC94105	SID131519724	1	7.1
ATP8B3 (ATPase phospholipid transporting 8B3)	SID131508745	0	1.4
LOC401577	SID131513118	0	6.2
FAM120B (family with sequence similarity 120 member B)	SID131505010	0	-4
FBLIM1 (filamin binding LIM protein 1)	SID131501157	-1	-12
SLC36A2	SID131503814	0	-7.7
UBL4B (ubiquitin like 4B)	SID131517553	0	13.8
PLEKHG2 (pleckstrin homology and RhoGEF domain containing G2)	SID131504834	0	-4.4
TRPC4AP	SID131502965	0	-17.2
NUP214 (nucleoporin 214)	SID131521241	1	12.8
POLR3C (RNA polymerase III subunit C)	SID131508889	0	1.6
UCKL1 (uridine-cytidine kinase 1 like 1)	SID131508584	0	1.2
KIAA0492	SID131518955	1	-1.7
SLC38A2	SID131515060	0	8.6
TRPM4	SID131508142	0	0.7
FBXO47 (F-box protein 47)	SID131513720	0	6.9
LOC390633	SID131519082	1	2.1
SMURF1 (SMAD specific E3 ubiquitin protein ligase 1)	SID131500889	-1	-14.7
GIPC3 (GIPC PDZ domain containing family member 3)	SID131513593	0	6.8
LOC344471	SID131517575	0	13.9
LOC387876	SID131512540	0	5.6
VAMP8 (vesicle associated membrane protein 8)	SID131511831	0	4.8
LOC440644	SID131518252	0	17.6
DSCAM (DS cell adhesion molecule)	SID131514518	0	7.9
DDX59 (DEAD-box helicase 59)	SID131514139	0	7.4
LOC346545	SID131506601	0	-1.3
PALMD (palmdelphin)	SID131516502	0	11
FBXO43 (F-box protein 43)	SID131519484	1	5.8
SYNPO2 (synaptopodin 2)	SID131517222	0	12.8
GIP (gastric inhibitory polypeptide)	SID131508283	0	0.9
STK24 (serine/threonine kinase 24)	SID131513269	0	6.4
ALX4 (ALX homeobox 4)	SID131501465	-1	-9.6
ZNF530 (zinc finger protein 530)	SID131517027	0	12.2
WDR90 (WD repeat domain 90)	SID131501431	-1	-9.8
WDR90 (WD repeat domain 90)	SID131502036	-1	-5.7

Part of the list above in another layout.
{"target":"MRPL17 (mitochondrial ribosomal protein L17)","PubChem SID":"SID131517159","two-siRNA summed score (-2 to +2)":0,"mean protection from cisplatin (shift in death) (%)":12.5}
{"target":"ARHGAP36 (Rho GTPase activating protein 36)","PubChem SID":"SID131504645","two-siRNA summed score (-2 to +2)":0,"mean protection from cisplatin (shift in death) (%)":-4.9}
{"target":"SLC6A10P","PubChem SID":"SID131522677","two-siRNA summed score (-2 to +2)":1,"mean protection from cisplatin (shift in death) (%)":21.6}
{"target":"LOC440687","PubChem SID":"SID131516584","two-siRNA summed score (-2 to +2)":0,"mean protection from cisplatin (shift in death) (%)":11.1}
{"target":"PSMC3 (proteasome 26S subunit, ATPase 3)","PubChem SID":"SID131522081","two-siRNA summed score (-2 to +2)":1,"mean protection from cisplatin (shift in death) (%)":16.2}
{"target":"OSBPL2 (oxysterol binding protein like 2)","PubChem SID":"SID131510347","two-siRNA summed score (-2 to +2)":0,"mean protection from cisplatin (shift in death) (%)":3.2}
{"target":"OSBPL2 (oxysterol binding protein like 2)","PubChem SID":"SID131513461","two-siRNA summed score (-2 to +2)":0,"mean protection from cisplatin (shift in death) (%)":6.6}
